Here are results for 33 targets from the supplement of paper PMC10849652.

Protein sequences, listed by entry. Tags and fused reporters are not part of them. Lines headed by an entry give the natural chain unless they say otherwise; changes in a name come on top.
UniProt P13056: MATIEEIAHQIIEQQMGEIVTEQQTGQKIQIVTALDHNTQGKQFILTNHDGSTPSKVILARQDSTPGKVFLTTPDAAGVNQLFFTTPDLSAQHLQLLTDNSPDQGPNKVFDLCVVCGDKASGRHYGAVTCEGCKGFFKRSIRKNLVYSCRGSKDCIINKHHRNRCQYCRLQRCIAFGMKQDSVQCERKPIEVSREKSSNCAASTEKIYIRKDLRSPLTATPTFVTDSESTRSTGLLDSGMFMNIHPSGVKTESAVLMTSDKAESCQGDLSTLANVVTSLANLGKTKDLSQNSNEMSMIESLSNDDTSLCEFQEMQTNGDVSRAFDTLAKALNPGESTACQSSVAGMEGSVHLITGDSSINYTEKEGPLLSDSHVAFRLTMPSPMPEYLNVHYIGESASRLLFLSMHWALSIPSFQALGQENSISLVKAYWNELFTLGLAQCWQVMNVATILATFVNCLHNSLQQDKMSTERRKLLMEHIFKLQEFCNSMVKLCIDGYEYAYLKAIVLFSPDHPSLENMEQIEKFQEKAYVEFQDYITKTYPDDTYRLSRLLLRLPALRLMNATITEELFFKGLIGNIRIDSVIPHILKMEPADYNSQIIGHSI
UniProt P69849: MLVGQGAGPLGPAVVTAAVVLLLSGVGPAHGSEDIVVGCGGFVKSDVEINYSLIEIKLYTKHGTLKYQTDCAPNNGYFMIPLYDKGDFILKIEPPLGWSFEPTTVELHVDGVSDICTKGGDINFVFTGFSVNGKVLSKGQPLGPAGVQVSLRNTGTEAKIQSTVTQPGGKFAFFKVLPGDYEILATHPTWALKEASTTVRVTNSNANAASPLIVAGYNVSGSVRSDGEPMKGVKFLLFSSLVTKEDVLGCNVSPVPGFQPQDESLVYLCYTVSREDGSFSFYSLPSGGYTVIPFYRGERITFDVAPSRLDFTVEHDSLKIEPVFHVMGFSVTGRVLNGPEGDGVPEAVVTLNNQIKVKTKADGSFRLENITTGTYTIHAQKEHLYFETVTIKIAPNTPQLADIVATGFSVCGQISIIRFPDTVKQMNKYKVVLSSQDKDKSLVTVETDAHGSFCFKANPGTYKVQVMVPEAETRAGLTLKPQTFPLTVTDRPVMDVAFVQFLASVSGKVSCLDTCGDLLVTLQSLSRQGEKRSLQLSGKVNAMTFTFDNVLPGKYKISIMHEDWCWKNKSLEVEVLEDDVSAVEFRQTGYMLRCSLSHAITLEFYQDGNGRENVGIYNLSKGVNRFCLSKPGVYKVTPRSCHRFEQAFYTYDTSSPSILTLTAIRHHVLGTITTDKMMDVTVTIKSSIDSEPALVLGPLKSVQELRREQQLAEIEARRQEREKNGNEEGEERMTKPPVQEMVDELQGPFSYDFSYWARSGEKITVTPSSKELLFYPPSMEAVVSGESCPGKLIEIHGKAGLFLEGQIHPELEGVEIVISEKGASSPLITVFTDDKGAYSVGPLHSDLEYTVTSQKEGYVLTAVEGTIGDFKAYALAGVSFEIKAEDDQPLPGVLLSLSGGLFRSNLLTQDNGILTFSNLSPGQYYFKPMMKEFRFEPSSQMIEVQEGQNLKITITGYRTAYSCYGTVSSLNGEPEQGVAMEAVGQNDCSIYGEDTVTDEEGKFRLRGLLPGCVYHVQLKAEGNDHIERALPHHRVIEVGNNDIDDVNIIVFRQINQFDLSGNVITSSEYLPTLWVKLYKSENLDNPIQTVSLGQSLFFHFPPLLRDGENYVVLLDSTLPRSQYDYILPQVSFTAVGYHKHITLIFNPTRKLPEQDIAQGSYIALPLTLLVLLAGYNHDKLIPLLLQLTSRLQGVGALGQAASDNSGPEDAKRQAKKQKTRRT
UniProt Q96T66: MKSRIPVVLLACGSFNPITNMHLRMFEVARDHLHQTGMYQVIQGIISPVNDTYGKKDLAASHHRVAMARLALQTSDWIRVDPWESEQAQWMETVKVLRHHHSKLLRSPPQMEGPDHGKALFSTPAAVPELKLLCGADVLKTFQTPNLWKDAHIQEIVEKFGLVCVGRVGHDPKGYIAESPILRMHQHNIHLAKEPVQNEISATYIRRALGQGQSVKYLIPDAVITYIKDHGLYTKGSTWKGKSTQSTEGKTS
UniProt Q9NYR9: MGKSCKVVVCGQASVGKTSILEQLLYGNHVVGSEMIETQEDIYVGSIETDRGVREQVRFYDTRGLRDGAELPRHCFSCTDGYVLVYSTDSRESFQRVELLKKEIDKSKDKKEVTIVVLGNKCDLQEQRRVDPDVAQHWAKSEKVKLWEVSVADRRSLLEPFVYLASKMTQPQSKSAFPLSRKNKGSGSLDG
UniProt Q92686, whole entry, looked up: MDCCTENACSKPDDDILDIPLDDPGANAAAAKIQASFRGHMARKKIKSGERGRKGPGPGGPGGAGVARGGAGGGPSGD
UniProt Q9NPE3: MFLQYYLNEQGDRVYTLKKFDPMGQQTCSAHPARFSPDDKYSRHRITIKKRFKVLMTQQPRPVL
UniProt Q8N5F7: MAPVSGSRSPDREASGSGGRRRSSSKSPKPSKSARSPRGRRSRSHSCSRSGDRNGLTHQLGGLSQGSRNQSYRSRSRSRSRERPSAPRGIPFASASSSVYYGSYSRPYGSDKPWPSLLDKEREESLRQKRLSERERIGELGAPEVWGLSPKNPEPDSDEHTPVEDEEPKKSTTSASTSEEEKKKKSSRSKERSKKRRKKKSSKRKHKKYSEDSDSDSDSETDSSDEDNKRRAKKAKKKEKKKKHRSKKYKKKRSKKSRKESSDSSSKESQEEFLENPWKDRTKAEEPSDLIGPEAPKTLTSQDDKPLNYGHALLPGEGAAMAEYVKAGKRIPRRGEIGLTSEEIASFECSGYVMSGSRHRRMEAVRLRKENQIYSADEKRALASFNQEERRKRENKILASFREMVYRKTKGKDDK
UniProt P48645: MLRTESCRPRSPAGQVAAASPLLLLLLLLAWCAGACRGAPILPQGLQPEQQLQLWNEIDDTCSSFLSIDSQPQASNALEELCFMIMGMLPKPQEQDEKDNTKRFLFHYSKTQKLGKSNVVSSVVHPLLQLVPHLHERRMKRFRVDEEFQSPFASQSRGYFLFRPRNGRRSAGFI
UniProt P04150: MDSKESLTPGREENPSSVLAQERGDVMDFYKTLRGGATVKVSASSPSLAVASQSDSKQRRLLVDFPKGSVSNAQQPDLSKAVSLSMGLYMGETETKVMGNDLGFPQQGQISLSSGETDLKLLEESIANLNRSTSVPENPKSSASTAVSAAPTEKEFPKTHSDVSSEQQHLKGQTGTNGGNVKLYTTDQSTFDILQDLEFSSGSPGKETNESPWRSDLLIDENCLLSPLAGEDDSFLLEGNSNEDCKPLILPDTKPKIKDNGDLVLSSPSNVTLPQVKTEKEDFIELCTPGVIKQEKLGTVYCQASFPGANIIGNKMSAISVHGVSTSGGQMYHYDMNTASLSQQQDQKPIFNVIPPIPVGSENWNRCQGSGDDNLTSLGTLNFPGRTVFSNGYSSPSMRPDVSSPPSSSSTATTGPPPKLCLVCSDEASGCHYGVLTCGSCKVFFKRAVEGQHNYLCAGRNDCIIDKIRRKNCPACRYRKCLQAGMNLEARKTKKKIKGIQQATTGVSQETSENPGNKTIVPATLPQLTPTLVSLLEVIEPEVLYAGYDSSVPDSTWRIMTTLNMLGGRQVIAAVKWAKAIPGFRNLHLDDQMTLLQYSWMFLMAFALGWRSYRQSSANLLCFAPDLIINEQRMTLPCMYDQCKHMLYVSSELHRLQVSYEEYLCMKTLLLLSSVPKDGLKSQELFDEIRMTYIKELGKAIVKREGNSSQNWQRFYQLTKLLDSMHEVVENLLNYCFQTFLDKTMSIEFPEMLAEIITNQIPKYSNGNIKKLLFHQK
UniProt Q6KC79: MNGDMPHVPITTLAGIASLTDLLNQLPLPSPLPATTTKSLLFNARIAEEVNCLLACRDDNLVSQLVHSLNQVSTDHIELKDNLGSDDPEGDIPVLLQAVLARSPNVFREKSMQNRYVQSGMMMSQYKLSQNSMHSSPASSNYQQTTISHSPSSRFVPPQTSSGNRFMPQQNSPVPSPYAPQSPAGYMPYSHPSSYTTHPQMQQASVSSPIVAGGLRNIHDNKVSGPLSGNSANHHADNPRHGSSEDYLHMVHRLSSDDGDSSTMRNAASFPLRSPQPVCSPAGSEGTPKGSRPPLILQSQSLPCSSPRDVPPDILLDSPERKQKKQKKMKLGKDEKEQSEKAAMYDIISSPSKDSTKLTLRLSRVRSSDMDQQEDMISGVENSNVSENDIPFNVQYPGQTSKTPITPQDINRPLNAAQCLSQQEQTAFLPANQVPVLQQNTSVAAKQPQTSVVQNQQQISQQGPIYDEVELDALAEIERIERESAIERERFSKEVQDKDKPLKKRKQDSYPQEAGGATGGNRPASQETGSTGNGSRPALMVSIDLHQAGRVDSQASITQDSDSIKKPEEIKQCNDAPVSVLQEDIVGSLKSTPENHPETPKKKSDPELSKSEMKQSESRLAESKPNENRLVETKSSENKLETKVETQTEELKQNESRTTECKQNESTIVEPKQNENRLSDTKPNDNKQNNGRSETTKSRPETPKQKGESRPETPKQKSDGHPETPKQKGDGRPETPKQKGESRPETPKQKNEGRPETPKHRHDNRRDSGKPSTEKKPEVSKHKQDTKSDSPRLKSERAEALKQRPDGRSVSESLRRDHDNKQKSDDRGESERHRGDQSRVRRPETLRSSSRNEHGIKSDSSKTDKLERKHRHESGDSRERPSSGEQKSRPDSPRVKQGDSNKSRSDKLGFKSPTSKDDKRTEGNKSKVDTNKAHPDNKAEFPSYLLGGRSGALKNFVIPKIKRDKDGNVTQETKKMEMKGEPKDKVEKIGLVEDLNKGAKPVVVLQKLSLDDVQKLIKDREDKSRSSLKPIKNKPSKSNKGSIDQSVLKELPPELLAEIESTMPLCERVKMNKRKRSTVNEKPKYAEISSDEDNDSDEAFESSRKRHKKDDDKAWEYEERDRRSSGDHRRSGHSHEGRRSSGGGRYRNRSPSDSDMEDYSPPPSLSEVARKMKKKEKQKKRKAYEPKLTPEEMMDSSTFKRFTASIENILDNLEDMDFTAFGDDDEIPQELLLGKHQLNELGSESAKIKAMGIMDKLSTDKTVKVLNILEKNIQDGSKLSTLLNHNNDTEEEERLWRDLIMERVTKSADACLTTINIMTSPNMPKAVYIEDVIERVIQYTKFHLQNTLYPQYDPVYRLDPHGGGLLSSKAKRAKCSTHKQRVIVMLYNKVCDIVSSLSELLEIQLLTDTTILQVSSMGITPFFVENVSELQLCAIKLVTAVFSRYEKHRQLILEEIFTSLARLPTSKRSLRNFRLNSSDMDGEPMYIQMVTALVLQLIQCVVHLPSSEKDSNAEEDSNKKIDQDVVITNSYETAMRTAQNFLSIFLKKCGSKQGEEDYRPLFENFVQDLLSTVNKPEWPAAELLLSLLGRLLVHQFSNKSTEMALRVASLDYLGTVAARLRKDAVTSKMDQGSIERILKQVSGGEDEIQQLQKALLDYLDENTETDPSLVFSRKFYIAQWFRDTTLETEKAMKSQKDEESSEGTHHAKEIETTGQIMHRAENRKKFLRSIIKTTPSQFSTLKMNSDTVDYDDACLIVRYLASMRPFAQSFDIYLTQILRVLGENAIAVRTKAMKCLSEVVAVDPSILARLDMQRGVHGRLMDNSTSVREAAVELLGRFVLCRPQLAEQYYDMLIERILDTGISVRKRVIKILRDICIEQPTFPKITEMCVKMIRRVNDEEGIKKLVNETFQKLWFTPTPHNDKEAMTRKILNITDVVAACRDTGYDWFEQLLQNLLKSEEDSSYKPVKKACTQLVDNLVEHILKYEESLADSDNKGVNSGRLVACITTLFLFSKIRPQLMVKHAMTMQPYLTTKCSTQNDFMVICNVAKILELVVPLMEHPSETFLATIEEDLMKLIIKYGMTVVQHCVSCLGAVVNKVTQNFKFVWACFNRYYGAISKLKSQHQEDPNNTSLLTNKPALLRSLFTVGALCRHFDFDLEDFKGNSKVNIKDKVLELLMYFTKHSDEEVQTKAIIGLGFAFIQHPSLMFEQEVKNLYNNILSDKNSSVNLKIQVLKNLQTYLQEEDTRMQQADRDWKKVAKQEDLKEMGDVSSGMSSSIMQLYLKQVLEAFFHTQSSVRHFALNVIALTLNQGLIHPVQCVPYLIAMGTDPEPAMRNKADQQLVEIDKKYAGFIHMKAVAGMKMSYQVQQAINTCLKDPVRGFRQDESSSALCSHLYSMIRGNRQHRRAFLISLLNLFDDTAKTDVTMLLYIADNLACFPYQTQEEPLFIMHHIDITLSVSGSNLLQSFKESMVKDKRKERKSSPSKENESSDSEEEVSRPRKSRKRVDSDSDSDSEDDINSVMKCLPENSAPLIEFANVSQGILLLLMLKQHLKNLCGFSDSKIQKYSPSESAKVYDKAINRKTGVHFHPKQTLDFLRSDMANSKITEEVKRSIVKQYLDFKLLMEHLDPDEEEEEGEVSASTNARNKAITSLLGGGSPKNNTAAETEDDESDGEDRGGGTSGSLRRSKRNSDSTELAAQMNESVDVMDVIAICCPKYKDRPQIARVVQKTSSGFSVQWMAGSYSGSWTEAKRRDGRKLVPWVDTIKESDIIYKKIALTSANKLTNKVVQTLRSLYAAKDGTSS

The other results are listed elsewhere or left out.

Compound in one experiment: CC1=C(C=C(C=C1)NC(=O)C2=CC(=CC=C2)C(C)(C)C#N)NC3=CC4=C(C=C3)N=CN(C4=O)C
The experiment can be described thus: log2 fold change, soluble protein after heating vs DMSO (PISA); higher = thermal stabilisation; K562 cells, 10 uM, 30 min; active = over 0.2 and 3.5 SD of the protein, either way, in both replicates (recomputed). In short, it runs like this:
(§1)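 Aliquots of K562 cells (2×10^6 cells/mL) treated with 10 μM compound for 30 min were heated for 3 min over 48°C-58°C. After pooling and extraction in PBS with 0.5% NP-40 at 4°C, soluble protein from a 21,000xg, 90 min spin was quantified by TMTpro 16plex LC-MS/MS with channel sums equalised. Thermal stability is expressed against control samples, from duplicates, as a log2 fold change.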
With NR2C1 (UniProt P13056), the log2 fold change was inactive: -0.045.

As for NRM (UniProt Q8IXM6), the log2 fold change was inactive: -0.021.

As to NRSN2 (UniProt Q9GZP1), the log2 fold change was inactive: -0.002.

NEU3 isoform 2 (UniProt Q9UQ49): the log2 fold change is inactive: 0.022.

Consider NOMO3 (UniProt P69849), for which the log2 fold change is inactive: -0.075.

For NOP14 (UniProt P78316), the log2 fold change is inactive: 0.018.

Consider NMNAT3 (UniProt Q96T66), for which the log2 fold change was inactive: 0.049.

Take NOL4L (UniProt Q96MY1): the log2 fold change is inactive: -0.062.

Take NIPSNAP2 (UniProt C9J7B1): the log2 fold change was inactive: 0.067.

For the target NFKBIA (UniProt P25963), the log2 fold change is inactive: 0.101.

With NKIRAS2 (UniProt Q9NYR9), the log2 fold change was inactive: -0.085.

As to NGRN (UniProt Q9NPE2), the log2 fold change is inactive: -0.004.

For the target NSD3 (UniProt Q9BZ95), the log2 fold change was inactive: 0.038.

In the case of NSD1 (UniProt Q96L73), the log2 fold change was inactive: -0.062.

Compound in a further experiment: CC1=C(C=C(C=C1)NC(=O)C2=CC(=CC=C2)N(C)C)NC(=O)C3=CC=C(C=C3)O
The description is as above. Put shortly: as §1
Turning to NRGN (UniProt Q92686), the log2 fold change is inactive: -0.168.

In the case of NOP10 (UniProt Q9NPE3), the log2 fold change was inactive: -0.034.

On to NKAP (UniProt Q8N5F7), for which the log2 fold change is inactive: 0.233.

For the target NRBP2 (UniProt Q9NSY0), the log2 fold change was inactive: -0.063.

Turning to NOS1AP (UniProt O75052), the log2 fold change is inactive: -0.016.

With NEO1 (UniProt Q92859), the log2 fold change was inactive: 0.122.

Regarding NME4 (UniProt O00746), the log2 fold change was inactive: -0.057.

Consider NFKB2 (UniProt Q00653), for which the log2 fold change was inactive: -0.003.

For the target NMU (UniProt P48645), the log2 fold change was inactive: -0.052.

Compound in a further experiment: CC1=CC=C(C=C1)SC2=C3C=C(SC3=CN=C2)C(=O)N
Described as above. Put shortly: as §1
As for NFE2L1 (UniProt Q14494), the log2 fold change was inactive: -0.054.

Turning to NKTR (UniProt P30414), the log2 fold change is inactive: -0.041.

As for NRGN (UniProt Q92686), the log2 fold change was inactive: 0.087.

As for NR3C1 isoform 3 (UniProt P04150), the log2 fold change is inactive: -0.021.

As to NIPBL (UniProt Q6KC79), the log2 fold change was inactive: -0.012.

For the target NRM (UniProt Q8IXM6), the log2 fold change was inactive: -0.002.

Take NOP10 (UniProt Q9NPE3): the log2 fold change is inactive: -0.196.

Regarding NKAP (UniProt Q8N5F7), the log2 fold change is inactive: 0.017.

In the case of NRROS (UniProt Q86YC3), the log2 fold change was inactive: -0.027.

NEU3 isoform 2 (UniProt Q9UQ49): the log2 fold change is inactive: -0.112.

NOL8 (UniProt Q76FK4): the log2 fold change was inactive: 0.053.

For the target NMNAT3 (UniProt Q96T66), the log2 fold change was inactive: 0.04.

For NOS1AP (UniProt O75052), the log2 fold change is inactive: 0.08.

For NGRN (UniProt Q9NPE2), the log2 fold change is inactive: 0.047.

NFKB2 (UniProt Q00653): the log2 fold change was inactive: -0.052.

As for NMU (UniProt P48645), the log2 fold change is inactive: 0.09.

For NELFCD (UniProt Q8IXH7), the log2 fold change is inactive: 0.02.

Compound in another experiment: CC1=NC(=CC=C1)C2=C(N=C(N2)C(C)(C)C)C3=CC4=NC=CN=C4C=C3
Described as above. In short, it runs like this:
as §1
Consider NFE2L1 (UniProt Q14494), for which the log2 fold change is inactive: 0.062.

Regarding NR2C1 (UniProt P13056), the log2 fold change is inactive: 0.192.

Consider NRGN (UniProt Q92686), for which the log2 fold change was inactive: -0.171.

Take NR3C1 isoform 3 (UniProt P04150): the log2 fold change is inactive: -0.102.

NIPBL (UniProt Q6KC79): the log2 fold change is inactive: 0.

As to NOP10 (UniProt Q9NPE3), the log2 fold change is inactive: 0.136.

On to NKAP (UniProt Q8N5F7), for which the log2 fold change was inactive: 0.052.

For the target NOMO3 (UniProt P69849), the log2 fold change was inactive: -0.051.

Turning to NRBP2 (UniProt Q9NSY0), the log2 fold change was inactive: -0.005.

With NOP14 (UniProt P78316), the log2 fold change is inactive: 0.002.

With NKIRAS2 (UniProt Q9NYR9), the log2 fold change is inactive: 0.177.

Consider NSD3 (UniProt Q9BZ95), for which the log2 fold change was inactive: -0.049.

NSD1 (UniProt Q96L73): the log2 fold change was inactive: 0.033.

For the target NFKB2 (UniProt Q00653), the log2 fold change is inactive: 0.018.

Consider NMU (UniProt P48645), for which the log2 fold change was active: 0.411.

With NELFCD (UniProt Q8IXH7), the log2 fold change is inactive: 0.18.

Compound in a further experiment: CCCCN(Cc1ccc(C(=O)NO)cc1)C(=O)Nc1ccccc1 [Nexturastat A]
The description is as above. Put shortly: as §1
On to NFE2L1 (UniProt Q14494), for which the log2 fold change was inactive: 0.12.

On to NSA2 (UniProt O95478), for which the log2 fold change is inactive: 0.29.

For the target NR2C1 (UniProt P13056), the log2 fold change is inactive: -0.114.

Regarding NRGN (UniProt Q92686), the log2 fold change was inactive: 0.143.

Turning to NR3C1 isoform 3 (UniProt P04150), the log2 fold change was inactive: 0.114.

NIPBL (UniProt Q6KC79): the log2 fold change was inactive: 0.01.

Regarding NRM (UniProt Q8IXM6), the log2 fold change was inactive: -0.091.

Consider NKAP (UniProt Q8N5F7), for which the log2 fold change is inactive: 0.042.

With NRSN2 (UniProt Q9GZP1), the log2 fold change is inactive: 0.053.

Regarding NOMO3 (UniProt P69849), the log2 fold change was inactive: -0.003.

As to NOC3L (UniProt Q8WTT2), the log2 fold change is inactive: -0.108.

NOP14 (UniProt P78316): the log2 fold change is inactive: 0.156.

Take NMNAT3 (UniProt Q96T66): the log2 fold change was inactive: -0.022.

For NOL4L (UniProt Q96MY1), the log2 fold change is inactive: 0.085.

As to NOS1AP (UniProt O75052), the log2 fold change was inactive: -0.058.

For the target NKIRAS2 (UniProt Q9NYR9), the log2 fold change was inactive: 0.

As to NGRN (UniProt Q9NPE2), the log2 fold change is inactive: 0.143.

In the case of NSD3 (UniProt Q9BZ95), the log2 fold change is inactive: 0.389.

Take NOTCH1 (UniProt P46531): the log2 fold change is inactive: 0.06.

Regarding NFKB2 (UniProt Q00653), the log2 fold change is inactive: 0.001.

For NMU (UniProt P48645), the log2 fold change is inactive: 0.283.

As for NELFCD (UniProt Q8IXH7), the log2 fold change is inactive: 0.094.
